PubChem BioAssay AID652259, Drosophila RNAi Screening Center | 2013
The screen tested about 22,000 reagents; below is an unselected part of those with a known target gene and a result. Over the whole deposit, 233 (1.1%) were called active. 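Light values are raw, unnormalised plate reads; the ratio scores behind the reporter calls were not deposited.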 Reagent sequences are not shown. Not stated in the record: the amount of reagent, the time to read-out, the dose of the treatment.

Test: 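Knock-downs that push a Wingless-driven reporter up or down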 (primary screen)
System: Drosophila clone 8 imaginal disc epithelial cells
Reagent: long dsRNA against Drosophila genes
Conditions: pathway stimulated by co-transfected Wingless expression plasmid
Read-out: 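Firefly luciferase from a tcf-site Wingless reporter, measured alongside co-transfected Renilla luciferase that tracks transfection; pathway stimulated by a Wingless plasmid; the firefly-to-Renilla ratio is not deposited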
Reading the numbers: firefly reporter light: higher = more Wg reporter light, before normalisation; Renilla control light: higher = more transfected or surviving cells
Hit rule: 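a knock-down is a candidate when at least two out of four statistical tests show it departing from its plate mean; one test alone signals a weak candidate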
Calls: active = candidate regulator (raises or lowers reporter); inactive = not a candidate

| Target gene | DRSC id | reporter change call, replicate 1 | firefly reporter light, replicate 1 | firefly reporter light, replicate 2 | Renilla control light, replicate 1 | Renilla control light, replicate 2 | Call |
| --- | --- | --- | --- | --- | --- | --- | --- |
| ZC3H3 | DRSC10696 | – | 1138 | 2788 | 315 | 653 | inactive |
| CG7368 | DRSC10826 | – | 11141 | – | 4339 | – | inactive |
| CG7368 | DRSC22821 | Wg reporter activity raised | 7.59e5 | 7.43e5 | 1.71e5 | 2.03e5 | inactive |
| CG7017 | DRSC10762 | – | 16752 | – | 2265 | – | inactive |
| Nepl4 (Neprilysin-like 4) | DRSC03239 | – | 8320 | – | 4128 | – | inactive |
| Rsph3 (Radial spoke head protein 3) | DRSC09696 | – | 5557 | – | 2896 | – | inactive |
| Rsph3 (Radial spoke head protein 3) | DRSC10211 | – | 1649 | 7457 | 1657 | 4729 | inactive |
| CG10089 | DRSC09694 | – | 4756 | – | 1382 | – | inactive |
| CG10089 | DRSC09695 | – | 6525 | – | 2341 | – | inactive |
| ACXE (Adenylyl cyclase X E) | DRSC00847 | – | 2305 | 7593 | 842 | 3024 | inactive |
| hid (head involution defective) | DRSC11316 | – | 6051 | – | 2921 | – | inactive |
| lbm (late bloomer) | DRSC07643 | – | 1968 | 6249 | 793 | 2466 | inactive |
| CG17777 | DRSC18137 | – | 21856 | – | 15707 | – | inactive |
| Mhc (Myosin heavy chain) | DRSC03367 | – | 3293 | 5948 | 918 | 3304 | inactive |
| Adgf-A2 (Adenosine deaminase-related growth factor A2) | DRSC09507 | – | 3308 | – | 1190 | – | inactive |
| CG15657 | DRSC04248 | – | 2261 | 3460 | 873 | 1818 | inactive |
| igl (igloo) | DRSC07631 | – | 16729 | – | 3168 | – | inactive |
| CG43428 | DRSC06205 | – | 4837 | – | 2471 | – | inactive |
| CG11018 | DRSC06024 | – | 12012 | – | 3200 | – | inactive |
| Rbp1 (RNA-binding protein 1) | DRSC16817 | – | 5095 | – | 2512 | – | inactive |
| bou (boudin) | DRSC17924 | – | 15600 | – | 7616 | – | inactive |
| CG10226 | DRSC09715 | – | 4459 | – | 1978 | – | inactive |
| CG8925 | DRSC16455 | – | 13945 | – | 2903 | – | inactive |
| CG8925 | DRSC16456 | – | 16141 | – | 3292 | – | inactive |
| CG8925 | DRSC16457 | – | 13989 | – | 2995 | – | inactive |
| CG6005 | DRSC15945 | – | 1796 | 6305 | 870 | 1667 | inactive |
| mesh | DRSC14472 | – | 3601 | 4871 | 1380 | 1465 | inactive |
| mesh | DRSC15098 | – | 8691 | – | 3626 | – | inactive |
| mesh | DRSC15099 | – | 5961 | – | 2436 | – | inactive |

Records above whose gene name starts with R or r (3):
| Target gene | DRSC id | reporter change call, replicate 1 | firefly reporter light, replicate 1 | firefly reporter light, replicate 2 | Renilla control light, replicate 1 | Renilla control light, replicate 2 | Call |
| --- | --- | --- | --- | --- | --- | --- | --- |
| Rsph3 (Radial spoke head protein 3) | DRSC09696 | – | 5557 | – | 2896 | – | inactive |
| Rsph3 (Radial spoke head protein 3) | DRSC10211 | – | 1649 | 7457 | 1657 | 4729 | inactive |
| Rbp1 (RNA-binding protein 1) | DRSC16817 | – | 5095 | – | 2512 | – | inactive |
